Experiment: Sensory properties of oil component blended with alkanediol, assessed by untrained panelists on the backside of the hand
Format: in vivo
Conditions: for Spreading with: 30 s after application; for Spreading with / Fatty/greasy skin feeling with: scale 1 (low) to 5 (high); for Fatty/greasy skin feeling with: after 2 minutes; for Fatty/greasy skin feeling Delta / Spreading Delta: with vs without alkanediol
From the text: For evaluating the sensory behavior, oil components specified in the following Table 13 were blended with 1,2-heptanediol or 2,3-heptanediol or a mixture of 1,2-heptanediol and 2,3-heptanediol or 1,2-octanediol or 2,3-octanediol or a mixture of 1,2-octanediol and 2,3-octanediol (formulation) and assessed by untrained panelists in comparison to the oil component without addition of the specified alkanediols (placebo).
Test procedure: • Hands were pre-washed with liquid soap by following a defined procedure; • 30 μl of corresponding sample was applied on the backside of each hand (randomized); • After 30 s the spreading behavior of the respective formulation on skin was evaluated versus the respective oil component without 1,2-heptanediol on a scale from 1 to 5 (1=low spreading; 5=high spreading); • The samples were distributed with the fingertips of middle and forefinger with 2×5 cycles; • After 2 minutes, the fatty/greasy skin feeling was evaluated on a scale from 1 to 5 (1=low fatty/greasy skin feeling; 5=high fatty/greasy skin feeling); • Furthermore, the applicants were asked to assess the absorption, i.e. the impression of amount of remaining residue on the skin on a scale from 1 to 5 (1=low absorption; 5=high absorption).

[1] = in Butyrospermum Parkii (Shea) Butter
[2] = in Caprylic Capric Triglyceride (neutral oil)
[3] = in Cetearyl Nonanoate (SymMollient S)
[4] = in Ethylhexyl Methoxycinnamate (Neo Heliopan AV)
[5] = in Ethylhexyl Salicylate (Neo Heliopan OS)
[6] = in Helianthus Annuus (Sunflower) Seed Oil
[7] = in Homosalate (Neo Heliopan HMS)
[8] = in Isoamyl p-Methoxycinnamate (Neo Heliopan E 1000)
[9] = in Octocrylene (Neo Heliopan 303)
[10] = in Propanediol Dicaprylate/Dicaprate (Symollient PDCC)
[11] = in Prunus Amygdalus Dulcis (Sweet Almond) Oil
[12] = in Simmondsia Chinensis (Jojoba) Seed Oil

For `CCCCCC(O)CO` (stereo not drawn) [1,2-heptanediol], the Spreading with (in Argan Oil) was 4.2, the “Fatty/greasy skin feeling with” value (in Argan Oil) was 2.4 and the “Fatty/greasy skin feeling Delta” value (in Argan Oil) was 1.6. For the same compound, the “Spreading Delta” value (in Argan Oil) was 2.2, the Spreading with (in Avocado Oil) was 4.4 and the “Fatty/greasy skin feeling with” value (in Avocado Oil) was 2.6. For the same compound, the “Fatty/greasy skin feeling Delta” value (in Avocado Oil) was 1.2, the “Spreading Delta” value (in Avocado Oil) was 2.2 and the Spreading with [1] was 4. The “Fatty/greasy skin feeling with” value [1] was 2, the “Fatty/greasy skin feeling Delta” value [1] was 2 and the “Spreading Delta” value [1] was 2. The Spreading with (in Cacao butter) was 3.8, the “Fatty/greasy skin feeling with” value (in Cacao butter) was 3 and the “Fatty/greasy skin feeling Delta” value (in Cacao butter) was 1.2. The “Spreading Delta” value (in Cacao butter) was 2, the Spreading with [2] was 3.4 and the “Fatty/greasy skin feeling with” value [2] was 2.9. For the same compound, the “Fatty/greasy skin feeling Delta” value [2] was 0.3, the “Spreading Delta” value [2] was 1.5 and the Spreading with (in Castor Oil) was 2.2. For the same compound, the “Fatty/greasy skin feeling with” value (in Castor Oil) was 2.8, the “Fatty/greasy skin feeling Delta” value (in Castor Oil) was 1.4 and the “Spreading Delta” value (in Castor Oil) was 1. The Spreading with [3] was 4.2, the “Fatty/greasy skin feeling with” value [3] was 2 .5 and the “Fatty/greasy skin feeling Delta” value [3] was 0.7. For the same compound, the “Spreading Delta” value [3] was 2.5, the Spreading with (in Chlorella oil (biotech)) was 4 and the “Fatty/greasy skin feeling with” value (in Chlorella oil (biotech)) was 2.7. For the same compound, the “Fatty/greasy skin feeling Delta” value (in Chlorella oil (biotech)) was 0.3, the “Spreading Delta” value (in Chlorella oil (biotech)) was 2.7 and the Spreading with (in Coconut Oil) was 4.2. For the same compound, the “Fatty/greasy skin feeling with” value (in Coconut Oil) was 1.8, the “Fatty/greasy skin feeling Delta” value (in Coconut Oil) was 1.4 and the “Spreading Delta” value (in Coconut Oil) was 1.8. For the same compound, the Spreading with [4] was 3.7, the “Fatty/greasy skin feeling with” value [4] was 3.2 and the “Fatty/greasy skin feeling Delta” value [4] was 0.5. For the same compound, the “Spreading Delta” value [4] was 2.2, the Spreading with [5] was 4.3 and the “Fatty/greasy skin feeling with” value [5] was 1.8. For the same compound, the “Fatty/greasy skin feeling Delta” value [5] was 1.9, the “Spreading Delta” value [5] was 2.5 and the Spreading with (in Grapeseed Oil) was 3.8. For the same compound, the “Fatty/greasy skin feeling with” value (in Grapeseed Oil) was 2.2, the “Fatty/greasy skin feeling Delta” value (in Grapeseed Oil) was 2 and the “Spreading Delta” value (in Grapeseed Oil) was 1.8. The Spreading with [6] was 4.2, the “Fatty/greasy skin feeling with” value [6] was 2.3 and the “Fatty/greasy skin feeling Delta” value [6] was 1.5. For the same compound, the “Spreading Delta” value [6] was 3, the Spreading with (in Hexyldecanol (Eutanol G)) was 3.5 and the “Fatty/greasy skin feeling with” value (in Hexyldecanol (Eutanol G)) was 3. The “Fatty/greasy skin feeling Delta” value (in Hexyldecanol (Eutanol G)) was 0, the “Spreading Delta” value (in Hexyldecanol (Eutanol G)) was 1 and the Spreading with [7] was 2.8. The “Fatty/greasy skin feeling with” value [7] was 3.2, the “Fatty/greasy skin feeling Delta” value [7] was 0.5 and the “Spreading Delta” value [7] was 0.8. For the same compound, the Spreading with [8] was 2.7, the “Fatty/greasy skin feeling with” value [8] was 2.7 and the “Fatty/greasy skin feeling Delta” value [8] was 1.3. For the same compound, the “Spreading Delta” value [8] was 1.2, the Spreading with (in Microalgae oil) was 3.8 and the “Fatty/greasy skin feeling with” value (in Microalgae oil) was 2.7. The “Fatty/greasy skin feeling Delta” value (in Microalgae oil) was 0.8, the “Spreading Delta” value (in Microalgae oil) was 1.6 and the Spreading with [9] was 2.7. For the same compound, the “Fatty/greasy skin feeling with” value [9] was 3.3, the “Fatty/greasy skin feeling Delta” value [9] was 1.5 and the “Spreading Delta” value [9] was 1.7. For the same compound, the Spreading with (in Olive Oil) was 4, the “Fatty/greasy skin feeling with” value (in Olive Oil) was 2 and the “Fatty/greasy skin feeling Delta” value (in Olive Oil) was 1.8. For the same compound, the “Spreading Delta” value (in Olive Oil) was 1.8, the Spreading with [10] was 2.9 and the “Fatty/greasy skin feeling with” value [10] was 2.5. The “Fatty/greasy skin feeling Delta” value [10] was 0.2, the “Spreading Delta” value [10] was 1.3 and the Spreading with [11] was 3. The “Fatty/greasy skin feeling with” value [11] was 2.5, the “Fatty/greasy skin feeling Delta” value [11] was 0.8 and the “Spreading Delta” value [11] was 1.7. The Spreading with [12] was 4, the “Fatty/greasy skin feeling with” value [12] was 2.8 and the “Fatty/greasy skin feeling Delta” value [12] was 1. For the same compound, the “Spreading Delta” value [12] was 2.5.
In the case of `CCCCCCC(O)CO` (stereo not drawn) [1,2-octanediol], the Spreading with (in Argan Oil) is reported as 3.8, the “Fatty/greasy skin feeling with” value (in Argan Oil) is reported as 2.6 and the “Fatty/greasy skin feeling Delta” value (in Argan Oil) is reported as 1.4. For the same compound, the “Spreading Delta” value (in Argan Oil) was 1.8, the Spreading with (in Avocado Oil) was 4 and the “Fatty/greasy skin feeling with” value (in Avocado Oil) was 3. For the same compound, the “Fatty/greasy skin feeling Delta” value (in Avocado Oil) was 0.8, the “Spreading Delta” value (in Avocado Oil) was 2 and the Spreading with (in Cacao butter) was 3.8. For the same compound, the “Fatty/greasy skin feeling with” value (in Cacao butter) was 3.2, the “Fatty/greasy skin feeling Delta” value (in Cacao butter) was 1 and the “Spreading Delta” value (in Cacao butter) was 2. For the same compound, the Spreading with (in Castor Oil) was 1.6, the “Fatty/greasy skin feeling with” value (in Castor Oil) was 3.6 and the “Fatty/greasy skin feeling Delta” value (in Castor Oil) was 0.6. The “Spreading Delta” value (in Castor Oil) was 0.4, the Spreading with (in Coconut Oil) was 4.4 and the “Fatty/greasy skin feeling with” value (in Coconut Oil) was 2.6. For the same compound, the “Fatty/greasy skin feeling Delta” value (in Coconut Oil) was 1, the “Spreading Delta” value (in Coconut Oil) was 2 and the Spreading with (in Grapeseed Oil) was 4. The “Fatty/greasy skin feeling with” value (in Grapeseed Oil) was 2.8, the “Fatty/greasy skin feeling Delta” value (in Grapeseed Oil) was 1.4 and the “Spreading Delta” value (in Grapeseed Oil) was 2. The Spreading with [6] was 4.2, the “Fatty/greasy skin feeling with” value [6] was 2 and the “Fatty/greasy skin feeling Delta” value [6] was 1.8. For the same compound, the “Spreading Delta” value [6] was 2.8, the Spreading with (in Olive Oil) was 4.2 and the “Fatty/greasy skin feeling with” value (in Olive Oil) was 2.6. The “Fatty/greasy skin feeling Delta” value (in Olive Oil) was 1.2 and the “Spreading Delta” value (in Olive Oil) was 2.
With `CCCCC(O)C(C)O` (stereo not drawn) [2,3-heptanediol] the Spreading with (in Argan Oil) was 3, the “Fatty/greasy skin feeling with” value (in Argan Oil) was 2.6 and the “Fatty/greasy skin feeling Delta” value (in Argan Oil) was 1.4. The “Spreading Delta” value (in Argan Oil) was 1, the Spreading with (in Avocado Oil) was 3.8 and the “Fatty/greasy skin feeling with” value (in Avocado Oil) was 2. For the same compound, the “Fatty/greasy skin feeling Delta” value (in Avocado Oil) was 1.8, the “Spreading Delta” value (in Avocado Oil) was 1.6 and the Spreading with (in Cacao butter) was 3. The “Fatty/greasy skin feeling with” value (in Cacao butter) was 3.4, the “Fatty/greasy skin feeling Delta” value (in Cacao butter) was 0.8 and the “Spreading Delta” value (in Cacao butter) was 1.2. For the same compound, the Spreading with [2] was 3.6, the “Fatty/greasy skin feeling with” value [2] was 3.4 and the “Fatty/greasy skin feeling Delta” value [2] was −0.2. The “Spreading Delta” value [2] was 1.7, the Spreading with (in Castor Oil) was 1.6 and the “Fatty/greasy skin feeling with” value (in Castor Oil) was 3.6. The “Fatty/greasy skin feeling Delta” value (in Castor Oil) was 0.6, the “Spreading Delta” value (in Castor Oil) was 0.4 and the Spreading with (in Coconut Oil) was 3.4. For the same compound, the “Fatty/greasy skin feeling with” value (in Coconut Oil) was 2.4, the “Fatty/greasy skin feeling Delta” value (in Coconut Oil) was 0.8 and the “Spreading Delta” value (in Coconut Oil) was 1. The Spreading with (in Grapeseed Oil) was 3.6, the “Fatty/greasy skin feeling with” value (in Grapeseed Oil) was 2.6 and the “Fatty/greasy skin feeling Delta” value (in Grapeseed Oil) was 1.6. For the same compound, the “Spreading Delta” value (in Grapeseed Oil) was 1.6, the Spreading with [6] was 3.8 and the “Fatty/greasy skin feeling with” value [6] was 2.6. For the same compound, the “Fatty/greasy skin feeling Delta” value [6] was 1, the “Spreading Delta” value [6] was 2.2 and the Spreading with (in Olive Oil) was 4. The “Fatty/greasy skin feeling with” value (in Olive Oil) was 2.2, the “Fatty/greasy skin feeling Delta” value (in Olive Oil) was 1.6 and the “Spreading Delta” value (in Olive Oil) was 1.8.

From US20230293405A1, “Compositions Comprising UV-Filters and One or More (Bio)-Alkanediols” (Symrise AG, priority 2020, published 2023)
